The results in this text go back to the supplement of paper PMC6411743.

Sequences of proteins named here, by UniProt entry; tags and fusion partners are left off. A change or cut given only in a name is not applied to a line headed by its entry.
UniProt O95429: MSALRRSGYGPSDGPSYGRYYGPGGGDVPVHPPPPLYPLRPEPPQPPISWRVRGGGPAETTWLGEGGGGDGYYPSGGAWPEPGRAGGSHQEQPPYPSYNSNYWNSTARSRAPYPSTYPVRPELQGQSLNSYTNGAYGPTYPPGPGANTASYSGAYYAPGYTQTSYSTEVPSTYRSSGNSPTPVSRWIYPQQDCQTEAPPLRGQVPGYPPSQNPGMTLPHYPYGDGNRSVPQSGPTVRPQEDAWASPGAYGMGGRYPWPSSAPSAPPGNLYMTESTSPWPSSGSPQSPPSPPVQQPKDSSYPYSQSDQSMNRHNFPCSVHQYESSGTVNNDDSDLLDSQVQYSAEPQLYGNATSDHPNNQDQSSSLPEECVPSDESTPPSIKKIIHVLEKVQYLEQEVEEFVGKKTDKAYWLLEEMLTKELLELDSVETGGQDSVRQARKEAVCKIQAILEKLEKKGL
UniProt O75489, whole entry: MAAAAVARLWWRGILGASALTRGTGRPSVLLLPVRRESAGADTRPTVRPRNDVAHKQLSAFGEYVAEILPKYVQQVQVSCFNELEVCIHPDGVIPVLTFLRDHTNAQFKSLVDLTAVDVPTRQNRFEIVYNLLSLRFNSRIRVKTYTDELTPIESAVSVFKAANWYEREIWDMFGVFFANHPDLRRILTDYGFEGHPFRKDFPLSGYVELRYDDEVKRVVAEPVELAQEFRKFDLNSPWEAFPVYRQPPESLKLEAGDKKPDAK
UniProt O75369, whole entry: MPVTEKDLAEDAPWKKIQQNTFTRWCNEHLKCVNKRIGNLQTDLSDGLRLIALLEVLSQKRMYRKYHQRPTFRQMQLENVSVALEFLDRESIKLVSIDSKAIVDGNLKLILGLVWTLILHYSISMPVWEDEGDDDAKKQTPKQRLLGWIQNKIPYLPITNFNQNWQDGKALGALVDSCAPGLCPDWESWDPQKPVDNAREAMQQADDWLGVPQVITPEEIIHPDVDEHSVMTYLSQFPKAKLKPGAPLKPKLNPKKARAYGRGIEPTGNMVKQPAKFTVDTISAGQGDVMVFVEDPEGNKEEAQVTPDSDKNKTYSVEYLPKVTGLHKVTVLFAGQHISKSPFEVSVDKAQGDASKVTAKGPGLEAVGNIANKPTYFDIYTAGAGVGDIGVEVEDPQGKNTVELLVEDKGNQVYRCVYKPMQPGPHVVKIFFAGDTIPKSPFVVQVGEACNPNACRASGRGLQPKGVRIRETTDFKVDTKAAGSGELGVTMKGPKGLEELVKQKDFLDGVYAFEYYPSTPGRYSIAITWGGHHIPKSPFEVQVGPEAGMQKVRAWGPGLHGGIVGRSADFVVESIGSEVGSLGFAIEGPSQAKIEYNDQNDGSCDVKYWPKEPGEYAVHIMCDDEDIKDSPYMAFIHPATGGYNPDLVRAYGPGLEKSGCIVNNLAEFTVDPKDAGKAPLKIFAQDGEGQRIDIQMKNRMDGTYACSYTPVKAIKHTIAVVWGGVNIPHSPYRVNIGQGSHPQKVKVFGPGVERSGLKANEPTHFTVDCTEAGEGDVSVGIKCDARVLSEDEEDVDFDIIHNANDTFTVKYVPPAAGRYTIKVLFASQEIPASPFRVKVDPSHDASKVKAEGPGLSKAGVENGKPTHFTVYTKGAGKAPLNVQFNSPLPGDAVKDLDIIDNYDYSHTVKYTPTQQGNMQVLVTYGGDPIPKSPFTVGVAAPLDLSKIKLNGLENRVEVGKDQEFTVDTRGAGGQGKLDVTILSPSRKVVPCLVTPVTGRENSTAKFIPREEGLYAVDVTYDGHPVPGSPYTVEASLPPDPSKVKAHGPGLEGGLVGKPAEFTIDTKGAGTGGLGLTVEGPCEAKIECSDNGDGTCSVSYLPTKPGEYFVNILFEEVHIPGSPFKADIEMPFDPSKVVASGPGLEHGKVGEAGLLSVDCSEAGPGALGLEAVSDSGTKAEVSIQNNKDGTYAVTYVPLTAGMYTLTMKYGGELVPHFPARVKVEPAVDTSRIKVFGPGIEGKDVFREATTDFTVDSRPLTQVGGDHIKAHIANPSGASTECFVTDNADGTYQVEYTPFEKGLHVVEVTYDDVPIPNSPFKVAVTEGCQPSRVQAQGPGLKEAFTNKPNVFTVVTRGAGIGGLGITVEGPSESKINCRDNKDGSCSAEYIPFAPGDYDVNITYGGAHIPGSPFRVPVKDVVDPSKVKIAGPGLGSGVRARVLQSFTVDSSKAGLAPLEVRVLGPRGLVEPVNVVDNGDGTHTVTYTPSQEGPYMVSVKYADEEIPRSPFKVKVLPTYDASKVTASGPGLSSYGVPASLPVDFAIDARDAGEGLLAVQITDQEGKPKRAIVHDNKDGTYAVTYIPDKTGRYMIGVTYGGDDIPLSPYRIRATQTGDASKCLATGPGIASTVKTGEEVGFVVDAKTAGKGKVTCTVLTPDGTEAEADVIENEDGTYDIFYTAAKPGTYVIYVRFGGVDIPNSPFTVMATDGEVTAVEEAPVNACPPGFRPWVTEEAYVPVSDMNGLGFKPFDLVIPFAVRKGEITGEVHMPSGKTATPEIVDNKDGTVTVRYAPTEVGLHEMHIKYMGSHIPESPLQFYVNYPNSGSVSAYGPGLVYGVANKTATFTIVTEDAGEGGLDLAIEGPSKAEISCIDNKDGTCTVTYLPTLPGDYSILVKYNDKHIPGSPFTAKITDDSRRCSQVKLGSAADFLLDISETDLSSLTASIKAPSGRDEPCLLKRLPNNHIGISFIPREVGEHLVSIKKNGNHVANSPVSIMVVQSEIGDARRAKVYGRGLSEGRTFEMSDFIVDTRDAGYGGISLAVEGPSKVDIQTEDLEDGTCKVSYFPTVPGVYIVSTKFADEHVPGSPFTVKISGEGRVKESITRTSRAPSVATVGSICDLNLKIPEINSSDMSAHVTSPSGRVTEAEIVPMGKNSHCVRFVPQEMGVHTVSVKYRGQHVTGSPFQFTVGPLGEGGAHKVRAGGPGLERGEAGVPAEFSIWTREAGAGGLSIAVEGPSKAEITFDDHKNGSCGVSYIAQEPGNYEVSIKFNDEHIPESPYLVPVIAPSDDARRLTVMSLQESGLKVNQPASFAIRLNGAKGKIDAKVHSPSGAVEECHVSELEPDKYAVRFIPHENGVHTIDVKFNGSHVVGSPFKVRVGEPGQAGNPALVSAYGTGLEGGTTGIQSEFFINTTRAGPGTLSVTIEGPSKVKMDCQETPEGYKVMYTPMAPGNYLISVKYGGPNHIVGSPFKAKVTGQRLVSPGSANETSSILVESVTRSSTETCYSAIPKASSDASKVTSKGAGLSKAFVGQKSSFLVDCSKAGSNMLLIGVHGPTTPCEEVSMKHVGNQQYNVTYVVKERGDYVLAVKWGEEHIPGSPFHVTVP
UniProt O60925, whole entry: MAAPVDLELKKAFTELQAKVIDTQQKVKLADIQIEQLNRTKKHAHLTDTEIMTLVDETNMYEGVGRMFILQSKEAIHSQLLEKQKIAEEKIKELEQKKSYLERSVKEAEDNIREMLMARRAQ
UniProt O94766: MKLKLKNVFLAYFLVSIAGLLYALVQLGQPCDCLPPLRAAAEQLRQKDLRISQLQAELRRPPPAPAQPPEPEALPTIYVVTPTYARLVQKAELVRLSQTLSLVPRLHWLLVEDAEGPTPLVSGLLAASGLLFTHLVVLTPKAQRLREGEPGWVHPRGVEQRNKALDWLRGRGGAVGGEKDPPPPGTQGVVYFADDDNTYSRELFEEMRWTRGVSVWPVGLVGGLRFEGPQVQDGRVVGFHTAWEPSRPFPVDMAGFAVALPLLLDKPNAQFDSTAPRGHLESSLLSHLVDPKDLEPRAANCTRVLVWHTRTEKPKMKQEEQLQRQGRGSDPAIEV
UniProt O75976: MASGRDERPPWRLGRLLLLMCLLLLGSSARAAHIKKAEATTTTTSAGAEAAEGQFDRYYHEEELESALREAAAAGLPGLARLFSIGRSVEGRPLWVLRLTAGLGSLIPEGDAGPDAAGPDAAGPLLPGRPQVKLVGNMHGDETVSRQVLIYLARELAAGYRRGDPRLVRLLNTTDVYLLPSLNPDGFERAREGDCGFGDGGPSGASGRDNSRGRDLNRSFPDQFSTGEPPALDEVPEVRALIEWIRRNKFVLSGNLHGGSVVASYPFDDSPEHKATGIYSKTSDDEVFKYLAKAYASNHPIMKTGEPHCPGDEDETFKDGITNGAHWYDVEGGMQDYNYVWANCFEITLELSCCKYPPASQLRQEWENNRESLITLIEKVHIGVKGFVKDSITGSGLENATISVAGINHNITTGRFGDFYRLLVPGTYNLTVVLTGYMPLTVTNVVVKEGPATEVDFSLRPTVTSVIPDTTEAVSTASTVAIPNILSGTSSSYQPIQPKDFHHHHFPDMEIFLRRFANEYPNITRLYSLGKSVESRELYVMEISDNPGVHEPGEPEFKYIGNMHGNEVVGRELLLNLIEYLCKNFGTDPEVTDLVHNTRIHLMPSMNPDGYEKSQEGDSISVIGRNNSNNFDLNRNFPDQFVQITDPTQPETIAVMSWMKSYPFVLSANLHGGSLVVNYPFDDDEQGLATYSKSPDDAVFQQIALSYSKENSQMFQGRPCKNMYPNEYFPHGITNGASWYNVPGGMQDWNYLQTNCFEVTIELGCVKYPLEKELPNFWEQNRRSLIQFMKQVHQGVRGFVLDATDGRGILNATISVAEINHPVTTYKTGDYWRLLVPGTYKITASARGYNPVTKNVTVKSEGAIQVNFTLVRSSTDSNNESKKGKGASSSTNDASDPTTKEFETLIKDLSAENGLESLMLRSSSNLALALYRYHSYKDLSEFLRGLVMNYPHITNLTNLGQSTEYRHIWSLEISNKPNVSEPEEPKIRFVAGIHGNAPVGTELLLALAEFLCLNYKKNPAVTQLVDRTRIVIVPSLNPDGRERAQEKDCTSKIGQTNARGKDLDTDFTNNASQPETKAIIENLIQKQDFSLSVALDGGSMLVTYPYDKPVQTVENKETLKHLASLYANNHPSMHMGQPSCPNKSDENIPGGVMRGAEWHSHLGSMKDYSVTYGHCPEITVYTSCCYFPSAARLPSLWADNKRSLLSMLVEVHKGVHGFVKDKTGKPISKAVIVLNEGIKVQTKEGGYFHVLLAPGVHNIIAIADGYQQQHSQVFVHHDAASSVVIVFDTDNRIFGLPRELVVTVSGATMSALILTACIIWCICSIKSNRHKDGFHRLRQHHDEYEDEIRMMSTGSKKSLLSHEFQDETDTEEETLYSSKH
UniProt O75150, whole entry: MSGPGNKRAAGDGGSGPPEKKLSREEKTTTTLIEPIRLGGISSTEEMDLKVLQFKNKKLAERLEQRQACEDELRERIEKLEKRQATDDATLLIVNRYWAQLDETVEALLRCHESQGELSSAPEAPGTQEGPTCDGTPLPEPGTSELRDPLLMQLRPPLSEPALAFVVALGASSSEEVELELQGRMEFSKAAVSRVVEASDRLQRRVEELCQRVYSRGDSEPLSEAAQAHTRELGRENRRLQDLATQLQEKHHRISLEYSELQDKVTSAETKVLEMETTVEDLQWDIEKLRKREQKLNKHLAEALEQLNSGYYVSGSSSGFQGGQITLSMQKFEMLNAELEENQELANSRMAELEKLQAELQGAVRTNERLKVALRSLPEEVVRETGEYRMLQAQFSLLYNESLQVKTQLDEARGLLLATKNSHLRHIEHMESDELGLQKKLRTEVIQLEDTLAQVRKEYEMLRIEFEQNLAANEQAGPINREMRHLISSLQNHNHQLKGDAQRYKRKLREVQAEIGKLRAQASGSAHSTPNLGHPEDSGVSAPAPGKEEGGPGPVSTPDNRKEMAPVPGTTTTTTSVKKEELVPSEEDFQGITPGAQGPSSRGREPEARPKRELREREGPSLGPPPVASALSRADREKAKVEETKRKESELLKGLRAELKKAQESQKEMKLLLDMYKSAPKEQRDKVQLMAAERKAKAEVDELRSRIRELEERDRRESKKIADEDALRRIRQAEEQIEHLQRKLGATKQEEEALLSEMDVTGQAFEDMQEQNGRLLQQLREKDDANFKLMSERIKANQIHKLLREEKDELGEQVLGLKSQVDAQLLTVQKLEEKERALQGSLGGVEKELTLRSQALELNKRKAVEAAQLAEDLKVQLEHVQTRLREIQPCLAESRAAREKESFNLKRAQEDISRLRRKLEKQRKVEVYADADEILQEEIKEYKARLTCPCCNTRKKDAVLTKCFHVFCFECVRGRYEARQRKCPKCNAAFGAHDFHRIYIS
UniProt O75616: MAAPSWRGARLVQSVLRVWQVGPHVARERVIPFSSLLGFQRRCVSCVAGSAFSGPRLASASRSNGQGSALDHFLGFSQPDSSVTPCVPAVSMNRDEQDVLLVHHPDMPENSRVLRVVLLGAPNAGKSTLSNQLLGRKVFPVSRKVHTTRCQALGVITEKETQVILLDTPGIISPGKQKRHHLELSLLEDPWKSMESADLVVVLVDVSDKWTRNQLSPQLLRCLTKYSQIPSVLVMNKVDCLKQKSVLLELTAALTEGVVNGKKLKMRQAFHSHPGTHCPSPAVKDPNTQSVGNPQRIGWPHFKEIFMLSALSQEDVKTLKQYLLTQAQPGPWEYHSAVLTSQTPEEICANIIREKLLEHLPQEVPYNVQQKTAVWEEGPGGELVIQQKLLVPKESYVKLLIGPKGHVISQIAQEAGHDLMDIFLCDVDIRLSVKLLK

± gives the standard deviation of the averaged measurements. The list shows a part of the results, in another mix than the full data. Small differences around the control level are noise.

Compound in the test: Nc1ncnc2c1ncn2[C@@H]1O[C@H](COP(=O)(O)OP(=O)(O)OP(=O)(O)O)[C@@H](O)[C@H]1O [adenosine triphosphate]
Kind of test: NP40-soluble protein abundance relative to vehicle (solubility fold change) (ratio); higher = more soluble protein in presence of ATP. Particulars: concentration: 0.1mM. In a few lines:
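Jurkat crude lysate prepared with a Dounce homogeniser was treated at eight concentrations spanning 0.1 to 10 mM, 10 min at room temperature then 3 min at 37 °C. Solubilisation with 0.8% NP40 and benzonase and ultracentrifugation preceded TMT labelling of the supernatant for LC-MS/MS. Fold change against the detergent-processed vehicle was determined per replicate from vsn-normalised intensities, across three independent experiments.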
Turning to TIPRL (UniProt O75663), the NP40-soluble protein abundance is 1.08 ± 0.052.

For the target MTRF1 (UniProt O75570), the NP40-soluble protein abundance amounted to 1.06 ± 0.063.

As for UniProt O60443 and related entries, the NP40-soluble protein abundance stood at 0.97 ± 0.12.

For UniProt O94927, the NP40-soluble protein abundance was found to be 0.988 ± 0.051.

UniProt O94903: the NP40-soluble protein abundance turned out to be 1.03 ± 0.042.

In the case of UniProt O94966-6|O94966-7|O94966-4, the NP40-soluble protein abundance was 1.01 ± 0.016.

Turning to UniProt O95429 and related entries, the NP40-soluble protein abundance was 1.02 ± 0.14.

NDUFS6 (UniProt O75380): the NP40-soluble protein abundance is 0.94 ± 0.044.

As to UniProt O94762 and related entries, the NP40-soluble protein abundance is 1 ± 0.024.

For UniProt O60488 and related entries, the NP40-soluble protein abundance is 1.07 ± 0.093.

On to CCNK (UniProt O75909), for which the NP40-soluble protein abundance was found to be 1.01 ± 0.06.

As for UniProt O95613 and related entries, the NP40-soluble protein abundance is 1.01 ± 0.11.

On to WDHD1 (UniProt O75717), for which the NP40-soluble protein abundance was determined as 0.994 ± 0.014.

As to USP1 (UniProt O94782), the NP40-soluble protein abundance amounted to 0.999 ± 0.018.

Take HERC2 (UniProt O95714): the NP40-soluble protein abundance came out at 0.976 ± 0.036.

In the case of SNUPN (UniProt O95149), the NP40-soluble protein abundance came out at 1.02 ± 0.025.

For the target UniProt O60733 and related entries, the NP40-soluble protein abundance amounted to 0.902 ± 0.01.

Consider UniProt O75688 and related entries, for which the NP40-soluble protein abundance amounted to 1.02 ± 0.036.

Consider ZC3H11A (UniProt O75152), for which the NP40-soluble protein abundance turned out to be 0.974 ± 0.029.

As to ZBED4 (UniProt O75132), the NP40-soluble protein abundance was determined as 0.989 ± 0.05.

RP2 (UniProt O75695): the NP40-soluble protein abundance is 1.05 ± 0.053.

Consider NDUFS3 (UniProt O75489), for which the NP40-soluble protein abundance turned out to be 0.992 ± 0.044.

Regarding DNAJA2 (UniProt O60884), the NP40-soluble protein abundance turned out to be 0.998 ± 0.043.

Consider “UniProt O75369-8|O75369-9|O75369 and related entries”, for which the NP40-soluble protein abundance is 0.997 ± 0.032.

As for CLPX (UniProt O76031), the NP40-soluble protein abundance was 1.02 ± 0.036.

PFDN1 (UniProt O60925): the NP40-soluble protein abundance amounted to 0.924 ± 0.12.

In the case of UniProt O94973 and related entries, the NP40-soluble protein abundance was determined as 1.01 ± 0.054.

UniProt O75410 and related entries: the NP40-soluble protein abundance worked out at 0.98 ± 0.014.

With UniProt O75935 and related entries, the NP40-soluble protein abundance was 0.897 ± 0.1.

In the case of B3GAT3 (UniProt O94766), the NP40-soluble protein abundance was 0.966 ± 0.034.

For the target UniProt O60858 and related entries, the NP40-soluble protein abundance is 1.1 ± 0.037.

Turning to CPD (UniProt O75976), the NP40-soluble protein abundance stood at 0.96 ± 0.015.

Turning to UniProt O75150 and related entries, the NP40-soluble protein abundance was 1 ± 0.026.

As to ERAL1 (UniProt O75616), the NP40-soluble protein abundance amounted to 1.1 ± 0.12.

With UniProt O60828 and related entries, the NP40-soluble protein abundance was found to be 0.97 ± 0.017.

With POLR1A (UniProt O95602), the NP40-soluble protein abundance was found to be 1.08 ± 0.014.

Turning to PRKRA (UniProt O75569), the NP40-soluble protein abundance is 0.971 ± 0.022.
